# Reference: PubChem BioAssay AID1347075 (National Center for Advancing Translational Sciences (NCATS), 2019)
# The campaign covered roughly 400,000 compounds. About 5,500 (1.4%) were called active. This list was built around the results that the source calls inconclusive (neither active nor inactive); the mix of calls is not that of the screen. The call rests on the fitted dose curve; in most records, active means well fitted cell-killing curve with a large enough effect; inconclusive means small, poorly fitted or top-dose-only effect, or effect the other way; inactive means flat fitted curve, though single readings scatter. Potencies beside an inconclusive call are fits to weak or partial responses and may not hold up.
# Assay: qHTS assay for MDR1-selective chemotherapeutics: Primary screen using the parental adenocarcinoma cell KB-3-1; further: nearly all actives have a fitted effect of over 60% in size
# Conditions: KB-3-1 viability, CellTiter-Glo ATP luminescence, 72 h; activity change, negative = cytotoxic: at 46.1 µM (top of the series)
# How it was run: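 KB-3-1 cells, DMEM (no phenol red) + 10% FBS; compound by pin transfer, 72 h, 37 °C. Readout: CellTiter-Glo luminescence after 10 min. Data normalized, curve-fitted.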
# On the % scale 0 is the no-effect control and ±100 the full control effect; potency means the concentration at half of the fitted maximal effect.
Compound,Potency,"activity change, negative = cytotoxic"
CCOC(=O)C1C(=O)N(C(=O)c2cncc(Br)c2)CC1c1ccccc1 (stereo not given),"inconclusive: 29.1 µM [cytotoxic, single point]",–
CCc1ccc(Nc2ncc3c(n2)CC(c2ccc(OC)cc2)CC3=O)cc1 (stereo not given),"inconclusive: 29.1 µM [cytotoxic, single point]",–
Cn1cc(C(=O)c2ccc(Cl)cc2Cl)cc1C(=O)N/N=C(\N)COc1ccc(Cl)cc1,"inconclusive: 18.4 µM [cytotoxic, single point]",–
CCc1cccc(C)c1NS(=O)(=O)c1ccc(-c2cc(C)no2)s1,active: 1.16 µM,–
CC1=C(C(=O)N(C(C)C)C(C)C)CC(CC(=O)NCc2cccc3ccccc23)C(=O)N1Cc1ccc(F)cc1 (stereo not given),"inconclusive: 29.1 µM [cytotoxic, single point]",–
C[C@H](NC(=O)c1nc[nH]c1C(=O)NCc1ccc(CNC(=O)OC(C)(C)C)cc1)C(=O)OC(C)(C)C,inactive,–
CCCCCCCC[n+]1c(C)n(-c2ccccc2)c2ccc(NC(C)=O)cc21,active: 4.61 µM,–
CC[n+]1c(/C=C/N(C)c2ccccc2)oc2ccc(Cl)cc21,"inconclusive: 0.92 µM [cytotoxic, partial curve, poor fit]",–
Cc1ccccc1Nc1c(-c2ccc(N3CCOCC3)cc2)nc2ccc(Cl)cn12,inactive,–
CN(C)CCCN(Cc1cc2cc3c(cc2[nH]c1=O)OCO3)C(=S)Nc1ccccc1,–,inconclusive: -15%
Cc1cc[n+]2c3c(cccc13)CCC2,"inconclusive: 29.1 µM [cytotoxic, single point]",–
C/C(=N\NC(=O)C1(C)CC1(Br)Br)c1ccc(NC(=O)c2ccc(C)o2)cc1 (stereo not given),"inconclusive: 2.59 µM [rising, full curve, poor fit]",–
CCCC(C)Sc1nc2c([nH]1)c(=S)n(C)c(=O)n2C (stereo not given),"inconclusive: 29.1 µM [cytotoxic, single point]",–
CN(Cc1c(C(=O)N/N=C/c2cccc(F)c2)nnn1-c1nonc1N)C1CCCCC1,"inconclusive: 29.1 µM [cytotoxic, single point]",–
Cc1ccc2nc(N3CCN(S(=O)(=O)c4ccc5c(c4)OCCO5)CC3)c(C#N)cc2c1,"inconclusive: 29.1 µM [cytotoxic, single point]",–
N#CC1=C(N)Oc2cc(N)ccc2C1c1cccc(Br)c1 (stereo not given),active: 8.2 µM,–
COc1ccc(CCNc2ncnc3c2oc2ccccc23)cc1OC,active: 9.2 µM,–
CCn1ccc2cc(S(=O)(=O)N3CCC(C(=O)NCc4ccc(F)cc4)CC3)ccc21,inactive,–
O=C(C[C@H]1C(=O)N(Cc2ccccc2)C[C@@H]1c1ccc(Br)cc1)Nc1ccc(Br)cc1,"inconclusive: 29.1 µM [cytotoxic, single point]",–
O=C1/C(=C\c2ccccc2)SC(=S)N1CCC(=O)N1CCCCC1CCO (stereo not given),"inconclusive: 29.1 µM [cytotoxic, single point]",–
Cc1cc(O)c(Sc2ncn[nH]2)cc1NS(=O)(=O)c1ccc(Cl)cc1,"inconclusive: 13 µM [cytotoxic, partial curve, poor fit]",–
COc1ccc2cnn(CCOc3cc(C)ccc3C(C)C)c(=O)c2c1OC,inactive,–
COc1ccc(S(=O)(=O)NNC(=O)c2cccs2)cc1,inactive,–

Compound,Potency,"activity change, negative = cytotoxic"
CC(=O)C1=C(O)C(=O)N(c2cc(C(C)(C)C)on2)C1c1ccc(Br)cc1 (stereo not given),"inconclusive: 25.9 µM [cytotoxic, single point]",–
COc1ccc(C(=O)Nc2ccc([N+](=O)[O-])cn2)c(OC)c1,inactive,–
O=C(Cn1ncc(N2CCCC2)c(Br)c1=O)c1ccc(Cl)cc1,inactive,–
CCNC(=O)C1(C)CCN(C(=O)c2c(F)ccc(C)c2F)C1 (stereo not given),inactive,–
O=C(CSc1ccc([N+](=O)[O-])cc1)OCC(=O)N1CCCC1=O,–,inconclusive: -6.63%
CC(=O)c1c(C)nn(CC(=O)NC2CCCN(Cc3ccc(CC(C)C)cc3)C2)c1C (stereo not given),"inconclusive: 29.1 µM [cytotoxic, single point]",–
COc1ccc(CCCNC(=O)C2(C)Cc3c(-c4ccc5c(c4)OCO5)ccnc3O2)cc1 (stereo not given),"inconclusive: 29.1 µM [cytotoxic, single point]",–
COC(=O)/C(=C\Nc1ccc(OC)cc1)NC(=O)c1ccc(Cl)cc1Cl,"inconclusive: 29.1 µM [cytotoxic, single point]",–
Cc1ccc2nc(-c3ccc(Cl)cc3)c(Cc3ccccc3C(F)(F)F)n2c1,inactive,–
CN(C)CCCCOc1ccccc1-c1ccccc1,"inconclusive: 2.91 µM [cytotoxic, partial curve, poor fit]",–
Cc1cc2oc(=O)c(CC(=O)O)c(C)c2c2occ(-c3ccc(F)cc3)c12,inactive,–
O=C(O)c1ccc(N2CCCCCC2)c(N2C(=O)c3ccccc3C2=O)c1,inactive,–
COc1ccc(NS(=O)(=O)c2cc(Br)cc3c2N(C(C)=O)CC3)cc1,active: 4.11 µM,–
COc1ccc(CNC(=O)c2c(C)oc3c2C(=O)c2ccccc2C3=O)cc1,"inconclusive: 29.1 µM [cytotoxic, single point]",–
CCN1C(=O)C2(Nc3ccccc3-c3nc4ccccc4n32)c2cc(OC)ccc21 (stereo not given),"inconclusive: 29.1 µM [cytotoxic, single point]",–
CC(=O)N1c2ccc(S(=O)(=O)NCCC(=O)NCc3ccc(Cl)cc3)cc2CC1C (stereo not given),inactive,–
O=C(CCCN1C(=O)/C(=C/c2ccccc2Cl)SC1=S)NNC(=O)c1ccccc1Cl,"inconclusive: 18.4 µM [cytotoxic, single point]",–
O/N=C(\c1ccccn1)C1CC1c1ccccc1 (stereo not given),"inconclusive: 16.4 µM [cytotoxic, single point]",–
Cc1cccc(C(=O)N2CCN(c3ccc([N+](=O)[O-])c(N4CCOCC4)c3)CC2)c1,"inconclusive: 29.1 µM [cytotoxic, single point]",–
Cc1ccc(CNC(=O)C2CCCC2)cc1,"inconclusive: 29.1 µM [rising, single point]",–
COCCNc1nnc(SCC(=O)NC2CCCCC2)s1,inactive,–
CC(O)CSc1nc2c(c(=O)n(C)c(=O)n2C)n1CCCc1ccccc1 (stereo not given),"inconclusive: 5.8 µM [cytotoxic, full curve]",–

# For convenience, part of the list above:
Compound,Potency,"activity change, negative = cytotoxic"
CCOC(=O)C1C(=O)N(C(=O)c2cncc(Br)c2)CC1c1ccccc1 (stereo not given),"inconclusive: 29.1 µM [cytotoxic, single point]",–
CCc1ccc(Nc2ncc3c(n2)CC(c2ccc(OC)cc2)CC3=O)cc1 (stereo not given),"inconclusive: 29.1 µM [cytotoxic, single point]",–
Cn1cc(C(=O)c2ccc(Cl)cc2Cl)cc1C(=O)N/N=C(\N)COc1ccc(Cl)cc1,"inconclusive: 18.4 µM [cytotoxic, single point]",–
CCc1cccc(C)c1NS(=O)(=O)c1ccc(-c2cc(C)no2)s1,active: 1.16 µM,–
CC1=C(C(=O)N(C(C)C)C(C)C)CC(CC(=O)NCc2cccc3ccccc23)C(=O)N1Cc1ccc(F)cc1 (stereo not given),"inconclusive: 29.1 µM [cytotoxic, single point]",–
C[C@H](NC(=O)c1nc[nH]c1C(=O)NCc1ccc(CNC(=O)OC(C)(C)C)cc1)C(=O)OC(C)(C)C,inactive,–
CCCCCCCC[n+]1c(C)n(-c2ccccc2)c2ccc(NC(C)=O)cc21,active: 4.61 µM,–
CC[n+]1c(/C=C/N(C)c2ccccc2)oc2ccc(Cl)cc21,"inconclusive: 0.92 µM [cytotoxic, partial curve, poor fit]",–
Cc1ccccc1Nc1c(-c2ccc(N3CCOCC3)cc2)nc2ccc(Cl)cn12,inactive,–
